# Data reported in patent US8951938B2, “Combinatorial rosamine library to detect cell-state switching” (New York University, priority 2007, dated 2015).
# Tested on: C2C12 myoblasts
# Assay: High-throughput screen for myogenesis inhibitors with E26 staining
# Assay type: cell-based, murine
# Details: 48 h with compound, 1 μM E26 staining after five days, p<0.05
smiles,measurement,value
CN[C@@H]1C[C@H]2O[C@@](C)([C@@H]1OC)n1c3ccccc3c3c4c(c5c6ccccc6n2c5c31)C(=O)NC4 [staurosporine],inhibition of differentiation (decrease of E26 fluorescent signal),reduced the fluorescent signal to a significant extent
